# Experimental data: patent US7927581B2, “Peptide-based multimeric targeted contrast agents” (Factor 1A, LLC, priority 2001, dated 2011)
# By UniProt entry, the sequences of proteins in these tests, tags left out. Residues count along the entry.
# UniProt P02671, 124-216: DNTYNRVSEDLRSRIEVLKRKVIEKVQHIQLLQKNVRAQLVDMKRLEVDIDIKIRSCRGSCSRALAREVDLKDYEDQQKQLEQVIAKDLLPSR
# UniProt P02671, 36-97: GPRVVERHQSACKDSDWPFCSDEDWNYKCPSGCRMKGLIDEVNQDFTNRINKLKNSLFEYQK
# UniProt P02675, 164-491: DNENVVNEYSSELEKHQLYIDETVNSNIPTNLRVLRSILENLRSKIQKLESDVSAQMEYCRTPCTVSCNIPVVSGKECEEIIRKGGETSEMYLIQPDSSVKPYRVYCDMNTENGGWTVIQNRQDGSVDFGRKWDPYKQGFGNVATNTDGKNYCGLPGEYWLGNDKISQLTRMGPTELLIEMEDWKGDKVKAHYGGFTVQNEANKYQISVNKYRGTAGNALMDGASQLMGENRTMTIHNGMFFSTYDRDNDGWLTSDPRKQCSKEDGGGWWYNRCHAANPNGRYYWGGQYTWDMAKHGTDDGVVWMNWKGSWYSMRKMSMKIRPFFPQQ
# UniProt P02675, 45-152: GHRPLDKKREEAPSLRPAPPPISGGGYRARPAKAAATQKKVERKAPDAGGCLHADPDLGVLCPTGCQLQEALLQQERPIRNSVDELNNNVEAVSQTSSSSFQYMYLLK
# UniProt P02679, 114-432: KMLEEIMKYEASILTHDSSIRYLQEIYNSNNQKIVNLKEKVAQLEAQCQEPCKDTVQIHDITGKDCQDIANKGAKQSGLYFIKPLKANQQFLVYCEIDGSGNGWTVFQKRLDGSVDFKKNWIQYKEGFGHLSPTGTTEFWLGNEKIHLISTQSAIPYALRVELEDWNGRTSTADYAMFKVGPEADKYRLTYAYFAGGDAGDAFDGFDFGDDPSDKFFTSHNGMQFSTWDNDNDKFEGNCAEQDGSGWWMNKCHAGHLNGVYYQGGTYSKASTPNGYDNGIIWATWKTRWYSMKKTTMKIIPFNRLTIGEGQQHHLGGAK
# UniProt P02679, 27-88: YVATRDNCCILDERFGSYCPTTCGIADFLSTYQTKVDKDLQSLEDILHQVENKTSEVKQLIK
# At least one compound was matched to its structure with a doubt left.
# Target: soluble fibrin DD(E) fragment (Homo sapiens, UniProt P02671+P02675+P02679)
# Assay: Affinity of contrast agents to soluble fibrin DD(E) fragment
# Type: binding
smiles,measurement,value
CC(C)C[C@H](NC(=O)[C@@H]1CSSC[C@H](NC(=O)[C@@H]2CCCN2C(=O)[C@H](CC(C)C)NC(=O)C(CNC(=O)C(CN(CCN(CC(=O)O)CC(=O)O)CC(=O)O)N(CC(=O)O)CC(=O)O)NC(=O)C(CN(CCN(CC(=O)O)CC(=O)O)CC(=O)O)N(CC(=O)O)CC(=O)O)C(=O)N[C@@H](CC(=O)O)C(=O)N[C@@H](Cc2ccc(O)cc2)C(=O)N[C@@H](Cc2ccc(O)cc2)C(=O)NCC(=O)N[C@@H]([C@@H](C)O)C(=O)N1)C(=O)N[C@@H](CC(=O)O)C(=O)NCc1ccc(CNC(=O)C(CNC(=O)C(CN(CCN(CC(=O)O)CC(=O)O)CC(=O)O)N(CC(=O)O)CC(=O)O)NC(=O)C(CN(CCN(CC(=O)O)CC(=O)O)CC(=O)O)N(CC(=O)O)CC(=O)O)cc1 (stereo partly shown) [Compound 5],Kd,12 µM
